In patent US20230381327A1 (DEBIOPHARM RESEARCH & MANUFACTURING S.A., priority 2020, published 2023):

Experiment: general procedure: Fmoc solid-phase peptide synthesis; Rink Amide AM resin (loading: 0.57 mmol/g); DIC
Details: for purity (crude or final not stated): whole synthesis; for purity (crude or final not stated) / final HPLC purity / crude HPLC purity: UPLC-MS, elution monitored at 214 nm (214 and 280 nm for method 2)
[1] = one disulfide bridge, sequence written open
[2] = conjugation step, one disulfide bridge
[3] = late stage modification step, one disulfide bridge

A3Dap-PEG1
purity (crude or final not stated) (one disulfide bridge): 90%

Ac-DCAKHLGELVWCT-NH2
purity (crude or final not stated) [1]: 99%

Ac-DCAWDabLGELVWCT-NH2
purity (crude or final not stated): 100%

Ac-DCAWH(D-Dap)GELVWCT-NH2
purity (crude or final not stated) [1]: 95%

Ac-DCAWHDabGELVWCT-NH2
purity (crude or final not stated) [1]: 90%

Ac-DCAWHDapGELVWCT-NH2
purity (crude or final not stated) [1]: 100%

Ac-DCAWHKGELVWCT-NH2
purity (crude or final not stated) [1]: 100%

Ac-DCAWHLGDapLVWCT-NH2
purity (crude or final not stated) [1]: 98%

Ac-DCAWHLGEKVWCT-NH2
purity (crude or final not stated) [1]: 99%

Ac-DCAWHLGELKWCT-NH2
purity (crude or final not stated) [1]: 100%

Ac-DCAWHLGELVKCT-NH2
purity (crude or final not stated) [1]: 98%

Ac-DCAWHLGELVWCK-NH2
purity (crude or final not stated) [1]: 99%

Ac-DCAWHLGKLVWCT-NH2
purity (crude or final not stated) [1]: 99%

Ac-DCAWHLKELVWCT-NH2
purity (crude or final not stated) [1]: 86%

Ac-DCAWHOrnGELVWCT-NH2
purity (crude or final not stated) [1]: 100%

Ac-DCAWH[Dap]GQLVWCT-NH2 (cysteine pairing not given here)
purity (crude or final not stated): 100%

Ac-DCAWH[Orn]GQLVWCT-NH2 (cysteine pairing not given here)
purity (crude or final not stated): 54%

Ac-DCAWKLGELVWCT-NH2
purity (crude or final not stated) [1]: 98%

Ac-DCAWKLGQLVWCT-NH2
purity (crude or final not stated) [1]: 99%

Ac-DCAW[Dab]LGQLVWCT-NH2 (cysteine pairing not given here)
purity (crude or final not stated): 99%

Ac-DCAW[Dap]LGQLVWCT-NH2 (cysteine pairing not given here)
purity (crude or final not stated): 99%

Ac-DCAW[Orn]LGQLVWCT-NH2 (cysteine pairing not given here)
purity (crude or final not stated): 98%

Ac-DCDapWHLGELVWCT-NH2
purity (crude or final not stated): 98%

Ac-DCKWHLGELVWCT-NH2
purity (crude or final not stated) [1]: 99%

Ac-DCOrnWHLGELVWCT-NH2
purity (crude or final not stated): 98%

Ac-DC[Dap]WH[Orn]GELVWCT-NH2 (cysteine pairing not given here)
purity (crude or final not stated): 92%

Ac-DChKWHLGELVWCT-NH2
purity (crude or final not stated): 94%

Ac-KCAWHLGELVWCT-NH2
purity (crude or final not stated) [1]: 98%

Ac-PEG20-DCAWHOrnGELVWCT-NH2
purity (crude or final not stated) [1]: 88%

Ac-RGNCAYHKGQIIWCTYH-NH2
purity (crude or final not stated) [1]: 99%

Ac-RGNCAYH[Orn]GQIIWCTYH-NH2 (cysteine pairing not given here)
purity (crude or final not stated): 98%

BocHN-Fc-III—(OtBu)2-L6Orn-PEG11-N3
conjugation yield (conjugation step): 40% yield | final HPLC purity (conjugation step): UV purity 95%

H-DCAWHLGELVWCT-NH2
purity (crude or final not stated) [1]: >95%

L6Dap-(CH2)2-ester-DOTA
final HPLC purity [2]: UV purity 100% | conjugation yield [2]: 57% yield

L6Dap-(CH2)2-ester-DTPA
final HPLC purity [2]: UV purity 84% | conjugation yield [2]: 59% yield

L6Dap-(CH2)2-ester-NH2
step yield (late stage modification step): 99% yield | crude HPLC purity (late stage modification step): UV purity 79%

L6Dap-(CH2)2-ester-NHBoc
step yield (late stage modification step): 53% yield | final HPLC purity (late stage modification step): UV purity 86%

L6Orn(-carbonate-NH2)-PEG24
crude HPLC purity (late stage modification step): 100% UV purity

L6Orn(-carbonate-NHBoc)-PEG24
step yield (late stage modification step): 77% yield | final HPLC purity (late stage modification step): 100% UV purity

L6Orn(-carbonate-PDB-DM4)-PEG24
final HPLC purity [2]: 100% UV purity | conjugation yield [2]: 64% yield

L6Orn(-carbonate-S-Mmt)-PEG24
step yield (late stage modification step): 82% yield | final HPLC purity (late stage modification step): 100% UV purity

L6Orn(-carbonate-Vedotin)-PEG24
final HPLC purity [2]: 100% UV purity | conjugation yield [2]: 77% yield

L6Orn-PEG11-N3
crude HPLC purity [3]: UV purity 75% | step yield [3]: 51% yield

RGNCAYHK(SuOH)GQIIWCTYH
step yield (late stage modification step): 43% yield | final HPLC purity (late stage modification step): 99% UV purity

RGNCAYHOrn(SuOH)GQIIWCTYH
step yield (late stage modification step): 36% yield | final HPLC purity (late stage modification step): 99% UV purity

mPEG24-DCAWHOrnGELVWCT-NH2
purity (crude or final not stated) [1]: 98%

Non-standard residues stand in square brackets, D forms with d. Orn = NCCC[C@H](N)C(=O)O; Dab = NCC[C@H](N)C(=O)O; Dap = NC[C@H](N)C(=O)O
